In US10597378B2 (priority 2017, dated 2020):
Some of these results come from one statement about several compounds together.

Protein sequences, listed by entry. Tags and fused reporters are not part of them.
UniProt P35372, whole entry: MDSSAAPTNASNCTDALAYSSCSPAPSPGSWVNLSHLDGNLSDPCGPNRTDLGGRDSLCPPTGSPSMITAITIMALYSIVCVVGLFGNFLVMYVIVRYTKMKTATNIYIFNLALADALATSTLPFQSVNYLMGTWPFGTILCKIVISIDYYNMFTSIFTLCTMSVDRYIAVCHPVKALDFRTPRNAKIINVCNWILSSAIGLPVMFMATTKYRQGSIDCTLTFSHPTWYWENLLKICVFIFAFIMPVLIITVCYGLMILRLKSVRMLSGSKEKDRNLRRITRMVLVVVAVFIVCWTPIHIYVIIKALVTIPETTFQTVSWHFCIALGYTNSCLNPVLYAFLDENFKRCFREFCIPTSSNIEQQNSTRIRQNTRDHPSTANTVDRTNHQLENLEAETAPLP

Molecular target: MOR (Homo sapiens, UniProt P35372)
Assay type: cell-based
Design: expressed in transfected cells; host or cells: CHO-K1/MOR/Ga15 cells
Protocol: In an exemplary in vitro assay for identifying MOR agonists, cells that express a MOR are treated with a test compound in a cellular calcium fluorescent assay and calcium fluorescence intensity is then measured to determine whether the MOR is activated. A test compound is identified as a MOR agonist if the MOR is activated.
EC50 herein refers to the concentration of a compound that induces a response halfway between the baseline and the maximum after a specified exposure time. AUC refers to the area under the response curve, an indication of the compound's capability of activating a MOR.
One day before the assay, CORNING® black with clear flat bottom 96-well assay plates were coated with a 0.1 mg/mL Poly-L-Lysine solution. CHO-K1/MOR/Ga15 cells were suspended in the F12 medium and plated at a density of about 8×10^4 cells/well in […] medium. Cells were incubated in a humidified atmosphere of 10% CO2 at 37° C. overnight so as to reach an 80-90% confluent cell monolayer before the assay. On the day of the assay, 150 μL medium/well was removed from plate. […] Compounds and other reagents were dissolved in the assay buffer. […] The [Ca^2+]i fluorescence was measured up to 90 s after agonist injection.

SMILES | FLIPR Ca2+ AUC
O=C(NCC1c2ccccc2CCN1S(=O)(=O)c1ccc(Br)cc1Cl)C1CCCCC1 (centres unmarked) [Compound 11, N-({2-[(4-Bromo-2-chlorophenyl)sulfonyl]-1,2,3,4-tetrahydro-1-isoquinolinyl}methyl)cyclohexanecarboxamide] | higher than 5000
O=C(NCC1NCCc2ccccc21)C1CCCC1 (centres unmarked) [Compound 43, N-(1,2,3,4-Tetrahydro-1-isoquinolinylmethyl)cyclopentanecarboxamide] | higher than 5000
O=C(NCC1c2ccccc2CCN1S(=O)(=O)c1ccc(Br)cc1F)C1CCCCC1 (centres unmarked) [Compound 12, N-({2-[ (4-Bromo-2-fluorophenyl)sulfonyl]-1,2,3,4-tetrahydro-1-isoquinolinyl}methyl)cyclohexanecarboxamide] | higher than 5000
COc1cccc(C(=O)NCC2NCCc3ccccc32)c1 (centres unmarked) [Compound 51, 3-Methoxy-N-(1,2,3,4-tetrahydro-1-isoquinolinylmethyl)benzamide] | higher than 5000
Cc1ccc(S(=O)(=O)N2CCc3ccccc3C2CNC(=O)C2CCCCC2)cc1 (centres unmarked) [Compound 18, N-({2-[(4-Methylphenyl)sulfonyl]-1,2,3,4-tetrahydro-1-isoquinolinyl}methyl)cyclohexanecarboxamide] | higher than 5000
COC1CCC(C(=O)NCC2NCCc3ccccc32)CC1 (centres unmarked) [Compound 42, 4-Methoxy-N-(1,2,3,4-tetrahydro-1-isoquinolinylmethyl)cyclohexanecarboxamide] | higher than 5000
Cc1ccc(C(=O)NCC2c3ccccc3CCN2C)cc1C (centres unmarked) [Compound 66, 3,4-Dimethyl-N-[(2-methyl-1,2,3,4-tetrahydro-1-isoquinolinyl)methyl]benzamide] | higher than 5000
O=C(NCC1c2ccccc2CCN1S(=O)(=O)c1ccccc1OC(F)(F)F)C1CCCCC1 (centres unmarked) [Compound 13, N-[(2-{[2-(Trifluoromethoxy)phenyl]sulfonyl}-1,2,3,4-tetrahydro-1-isoquinolinyl)methyl]cyclohexanecarboxamide] | higher than 5000
O=C(NCC1NCCc2ccccc21)c1ccccc1OC(F)(F)F (centres unmarked) [Compound 56, N-(1,2,3,4-Tetrahydro-1-isoquinolinylmethyl)-2-(trifluoromethoxy)benzamide] | higher than 5000
CCC1CCC(C(=O)NCC2NCCc3ccccc32)CC1 (centres unmarked) [Compound 40, 4-Ethyl-N-(1,2,3,4-tetrahydro-1-isoquinolinylmethyl)cyclohexanecarboxamide] | higher than 5000
O=C(NCC1c2ccccc2CCN1S(=O)(=O)c1ccc(Br)cc1OC(F)(F)F)C1CC1 (centres unmarked) [Compound 28, N-[(2-{[4-Bromo-2-(trifluoromethoxy)phenyl]sulfonyl}-1,2,3,4-tetrahydro-1-isoquinolinyl)methyl]cyclopropanecarboxamide] | higher than 5000
Cc1ccc(C(=O)NCC2c3ccccc3CCN2C)cc1 (centres unmarked) [Compound 61, 4-Methyl-N-[(2-methyl-1,2,3,4-tetrahydro-1-isoquinolinyl)methyl]benzamide] | higher than 5000
CCc1ccc(C(=O)NCC2c3ccccc3CCN2C)cc1 (centres unmarked) [Compound 65, 4-Ethyl-N-[(2-methyl-1,2,3,4-tetrahydro-1-isoquinolinyl)methyl]benzamide] | higher than 5000
CC1CCC(C(=O)NCC2NCCc3ccccc32)CC1 (centres unmarked) [Compound 39, 4-Methyl-N-(1,2,3,4-tetrahydro-1-isoquinolinylmethyl)cyclohexanecarboxamide] | higher than 5000
O=C(NCC1NCCc2ccccc21)c1cccc(Cl)c1 (centres unmarked) [Compound 53, 3-Chloro-N-(1,2,3,4-tetrahydro-1-isoquinolinylmethyl)benzamide] | higher than 5000
O=C(NCC1c2ccccc2CCN1S(=O)(=O)c1ccc(Br)cc1OC(F)(F)F)N1CCCC1 (centres unmarked) [Compound 26, N-[(2-{[4-Bromo-2-(trifluoromethoxy)phenyl]sulfonyl}-1,2,3,4-tetrahydro-1-isoquinolinyl)methyl]-1-pyrrolidinecarboxamide] | higher than 5000
O=C(NCC1c2ccccc2CCN1S(=O)(=O)c1ccc(Br)cc1OC(F)(F)F)C1CCCCC1 (centres unmarked) [Compound 6, N-[(2-{[4-Bromo-2-(trifluoromethoxy)phenyl]sulfonyl}-1,2,3,4-tetrahydro-1-isoquinolinyl)methyl]cyclohexanecarboxamide] | higher than 5000
O=C(NCC1c2ccccc2CCN1S(=O)(=O)c1ccc(Br)cc1OC(F)(F)F)c1ccccc1 (centres unmarked) [Compound 24, N-[(2-{[4-Bromo-2-(trifluoromethoxy)phenyl]sulfonyl}-1,2,3,4-tetrahydro-1-isoquinolinyl)methyl]benzamide] | higher than 5000

SMILES | FLIPR Ca2+ AUC
O=C(NCC1c2ccccc2CCN1S(=O)(=O)c1ccc(Br)cc1OC(F)(F)F)N1CCCCC1 (centres unmarked) [Compound 25, N-[(2-{[4-Bromo-2-(trifluoromethoxy)phenyl]sulfonyl}-1,2,3,4-tetrahydro-1-isoquinolinyl)methyl]-1-piperidinecarboxamide] | higher than 5000
O=C(NCC1NCCc2ccccc21)c1ccccc1 (centres unmarked) [Compound 45, N-(1,2,3,4-Tetrahydro-1-isoquinolinylmethyl)benzamide] | higher than 5000
CCCCN1CCc2ccccc2C1CNC(=O)c1ccc(C)cc1 (centres unmarked) [Compound 62, N-[(2-Butyl-1,2,3,4-tetrahydro-1-isoquinolinyl)methyl]-4-methylbenzamide] | higher than 5000
O=C(NCC1c2ccccc2CCN1S(=O)(=O)c1ccc(Br)cc1C(F)(F)F)C1CCCCC1 (centres unmarked) [Compound 7, N-[(2-{[4-Bromo-2-(trifluoromethyl)phenyl]sulfonyl}-1,2,3,4-tetrahydro-1-isoquinolinyl)methyl]cyclohexanecarboxamide] | higher than 5000
O=C(NCC1c2ccccc2CCN1S(=O)(=O)c1ccc(Br)cc1OC(F)(F)F)C1CCC1 (centres unmarked) [Compound 27, N-[(2-{[4-Bromo-2-(trifluoromethoxy)phenyl]sulfonyl}-1,2,3,4-tetrahydro-1-isoquinolinyl)methyl]cyclobutanecarboxamide] | higher than 5000
O=C(NCC1c2ccccc2CCN1S(=O)(=O)c1ccc(Br)cc1)C1CCCCC1 (centres unmarked) [Compound 9, N-({2-[(4-Bromophenyl)sulfonyl]-1,2,3,4-tetrahydro-1-isoquinolinyl}methyl)cyclohexanecarboxamide] | higher than 5000
O=C(NCC1c2ccccc2CCN1S(=O)(=O)c1ccc(Cl)cc1)C1CCCCC1 (centres unmarked) [Compound 17, N-({2-[(4-Chlorophenyl)sulfonyl]-1,2,3,4-tetrahydro-1-isoquinolinyl}methyl)cyclohexanecarboxamide] | higher than 5000
Cc1ccc(C(=O)NCC2NCCc3ccccc32)c(C)c1 (centres unmarked) [Compound 60, 2,4-Dimethyl-N-(1,2,3,4-tetrahydro-1-isoquinolinylmethyl)benzamide] | higher than 5000
O=C(NCC1c2ccccc2CCN1S(=O)(=O)c1ccc(Br)cc1Br)C1CCCCC1 (centres unmarked) [Compound 10, N-({2-[(2,4-Dibromophenyl)sulfonyl]-1,2,3,4-tetrahydro-1-isoquinolinyl}methyl)cyclohexanecarboxamide] | higher than 5000
CC(C)(C)C(=O)NCC1c2ccccc2CCN1S(=O)(=O)c1ccc(Br)cc1OC(F)(F)F (centres unmarked) [Compound 29, N-[(2-{[4-Bromo-2-(trifluoromethoxy)phenyl]sulfonyl}-1,2,3,4-tetrahydro-1-isoquinolinyl)methyl]-2,2-dimethylpropanamide] | higher than 5000
Cc1ccc(C(=O)NCC2c3ccccc3CCN2CC(C)C)cc1 (centres unmarked) [Compound 63, 4-Methyl-N-{[2-(2-methylpropyl)-1,2,3,4-tetrahydro-1-isoquinolinyl]methyl}benzamide] | higher than 5000
O=C(NCC1NCCc2ccccc21)c1ccccc1F (centres unmarked) [Compound 57, 2-Fluoro-N-(1,2,3,4-tetrahydro-1-isoquinolinylmethyl)benzamide] | higher than 5000
O=C(NCC1NCCc2ccccc21)C1CCCCC1 (centres unmarked) [Compound 5, N-(1,2,3,4-Tetrahydro-1-isoquinolinylmethyl)cyclohexanecarboxamide] | higher than 5000
CC1CCCCC1C(=O)NCC1NCCc2ccccc21 (centres unmarked) [Compound 41, 2-Methyl-N-(1,2,3,4-tetrahydro-1-isoquinolinylmethyl)cyclohexanecarboxamide] | higher than 5000
O=C(NCC1NCCc2ccccc21)c1cccc(F)c1 (centres unmarked) [Compound 52, 3-Fluoro-N-(1,2,3,4-tetrahydro-1-isoquinolinylmethyl)benzamide] | higher than 5000
Cc1cc(F)ccc1S(=O)(=O)N1CCc2ccccc2C1CNC(=O)C1CCCCC1 (centres unmarked) [Compound 16, N-({2-[(4-Fluoro-2-methylphenyl)sulfonyl]-1,2,3,4-tetrahydro-1-isoquinolinyl}methyl)cyclohexanecarboxamide] | higher than 5000
O=C(NCC1c2ccccc2CCN1S(=O)(=O)c1ccc(F)cc1C(F)(F)F)C1CCCCC1 (centres unmarked) [Compound 15, N-[(2-{[4-Fluoro-2-(trifluoromethyl)phenyl]sulfonyl}-1,2,3,4-tetrahydro-1-isoquinolinyl)methyl]cyclohexanecarboxamide] | higher than 5000
